Results deposited as PubChem BioAssay AID652259 (Drosophila RNAi Screening Center, 2013).

Test: 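Genome-wide hunt for genes that control Wingless pathway activity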 (primary screen)
Cells: Drosophila clone 8 imaginal disc epithelial cells
Reagent: long dsRNA against Drosophila genes
Conditions: pathway stimulated by co-transfected Wingless expression plasmid
Measurement: 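Firefly luciferase from a tcf-site Wingless reporter, measured alongside co-transfected Renilla luciferase that tracks transfection; pathway stimulated by a Wingless plasmid; the firefly-to-Renilla ratio is not deposited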
Scale: firefly reporter light: higher = more Wg reporter light, before normalisation; Renilla control light: higher = more transfected or surviving cells
Active means: 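Strong candidates differ from their plate mean by at least two out of four per-plate statistical tests; weak candidates meet just one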
Meaning of the calls: active = candidate regulator (raises or lowers reporter); inactive = not a candidate
The screen tested about 22,000 reagents; below is an unselected part of those that have a named target and a result. In the full data, 233 (1.1%) were called active. 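Light values are raw, unnormalised plate reads; the ratio scores behind the reporter calls were not deposited.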 Reagents against one gene are numbered here. Reagent sequences are not shown. Not stated in the record: the amount of reagent, the time to read-out, the dose of the treatment.

| target gene | reagent | reporter change call, replicate 1 | firefly reporter light, replicate 1 | firefly reporter light, replicate 2 | Renilla control light, replicate 1 | Renilla control light, replicate 2 | call |
| --- | --- | --- | --- | --- | --- | --- | --- |
| CR31032 | 1 | – | 5.67e5 | 5.82e5 | 1.77e5 | 1.44e5 | inactive |
| CG34160 | 1 | – | 19885 | – | 8210 | – | inactive |
| Ugt35C1 | 1 | – | 23722 | – | 5708 | – | inactive |
| meso18E | 1 | – | 14210 | – | 7495 | – | inactive |
| dpr12 | 1 | – | 16805 | – | 10068 | – | inactive |
| dpr12 | 2 | – | 2560 | 8053 | 672 | 3152 | inactive |
| dpr12 | 3 | – | 2402 | 6756 | 845 | 2736 | inactive |
| Lsm10 | 1 | – | 1955 | 6304 | 715 | 2712 | inactive |
| Tmep | 1 | – | 16857 | – | 4392 | – | inactive |
| CG18605 | 1 | – | 8820 | – | 2455 | – | inactive |
| CG10943 | 1 | – | 5831 | – | 1754 | – | inactive |
| CG13630 | 1 | – | 3050 | 5634 | 1653 | 2348 | inactive |
| Rtca | 1 | – | 2839 | 6729 | 1264 | 2870 | inactive |
| CG3999 | 1 | – | 15040 | – | 3117 | – | inactive |
| CG17744 | 1 | – | 2551 | 9446 | 1789 | 4065 | inactive |
| sosie | 1 | – | 27056 | – | 22309 | – | inactive |
| sosie | 2 | – | 7.20e5 | 7.05e5 | 4.34e5 | 3.54e5 | inactive |
| Cpr65Aw | 1 | – | 3639 | – | 1860 | – | inactive |
| CG32591 | 1 | – | 3219 | – | 1108 | – | inactive |
| Polr3E | 1 | – | 9747 | – | 4412 | – | inactive |
| CG7231 | 1 | – | 1882 | 4732 | 615 | 2704 | inactive |
| Clic | 1 | – | 3449 | 7088 | 770 | 3236 | inactive |
| mRpS31 | 1 | – | 7291 | – | 2651 | – | inactive |
| CG15387 | 1 | – | 2828 | 4951 | 994 | 2343 | inactive |
| Ugt301D1 | 1 | – | 3800 | 7480 | 1244 | 2962 | inactive |
| CG17141 | 1 | – | 12134 | – | 10713 | – | inactive |
| Mmp1 | 1 | – | 2407 | 6860 | 533 | 1937 | inactive |
| CG34242 | 1 | – | 5428 | 8.05e5 | 832 | 3.53e5 | inactive |
| CAHbeta | 1 | – | 3656 | – | 2090 | – | inactive |
| CG8818 | 1 | – | 9389 | – | 1712 | – | inactive |
| wg | 1 | Wg reporter activity lowered | 857 | 2906 | 786 | 3148 | active |
| CG17290 | 1 | – | 7777 | – | 2077 | – | inactive |
| Sk2 | 1 | – | 3944 | – | 1081 | – | inactive |
| CG15553 | 1 | – | 7344 | – | 3469 | – | inactive |
| Hen1 | 1 | – | 11604 | – | 3077 | – | inactive |
| Hen1 | 2 | – | 5104 | – | 2536 | – | inactive |
| TyrRII | 1 | – | 11291 | – | 1962 | – | inactive |
| CG10581 | 1 | – | 18016 | – | 6256 | – | inactive |
| CG14275 | 1 | – | 2396 | 7715 | 1056 | 3313 | inactive |
| Las | 1 | – | 5238 | – | 1236 | – | inactive |
| dsf | 1 | – | 1617 | 4705 | 512 | 647 | inactive |
| GluRIIE | 1 | – | 2215 | – | 1059 | – | inactive |
| CG4230 | 1 | – | 4160 | – | 2323 | – | inactive |
| CG15252 | 1 | – | 19557 | – | 9337 | – | inactive |
| SrpRbeta | 1 | – | 6.10e5 | 7.23e5 | 4.25e5 | 3.44e5 | inactive |
| obst-H | 1 | – | 11731 | – | 4960 | – | inactive |
| obst-H | 2 | – | 8437 | – | 3634 | – | inactive |
| Fas1 | 1 | – | 18765 | – | 3666 | – | inactive |
| CG11367 | 1 | – | 5.86e5 | 6.26e5 | 2.05e5 | 1.91e5 | inactive |
| Gr47b | 1 | – | 16769 | – | 14394 | – | inactive |
| CG14817 | 1 | – | 17346 | – | 12432 | – | inactive |
| CG8136 | 1 | – | 15568 | – | 3984 | – | inactive |
| Dh44-R2 | 1 | – | 6842 | – | 2603 | – | inactive |
| Dh44-R2 | 2 | – | 9152 | – | 2272 | – | inactive |
| CG31248 | 1 | – | 5.51e5 | 5.18e5 | 1.65e5 | 1.34e5 | inactive |
| Asciz | 1 | – | 4662 | – | 1888 | – | inactive |
| Nrt | 1 | – | 2236 | – | 971 | – | inactive |
| clt | 1 | – | 2490 | 6507 | 755 | 2378 | inactive |
| Taldo | 1 | – | 8790 | – | 2690 | – | inactive |
| CG10164 | 1 | – | 3931 | – | 772 | – | inactive |
| CG31211 | 1 | – | 8153 | – | 4049 | – | inactive |
| CG31211 | 2 | – | 15719 | – | 4405 | – | inactive |
| CG31211 | 3 | – | 3.85e5 | 3.68e5 | 1.64e5 | 1.25e5 | inactive |
| Cpr67Fb | 1 | – | 4711 | – | 1924 | – | inactive |
| MYPT-75D | 1 | – | 5752 | – | 2021 | – | inactive |
| ATPsynD | 1 | – | 12385 | – | 3958 | – | inactive |
| CG14286 | 1 | – | 15316 | – | 3820 | – | inactive |
| lectin-24A | 1 | – | 1986 | 5025 | 848 | 2026 | inactive |
| CG18682 (retired record) | 1 | – | 8131 | – | 3316 | – | inactive |
| CG18682 (retired record) | 2 | – | 6208 | – | 2934 | – | inactive |
| nero | 1 | – | 1493 | 2963 | 728 | 1733 | inactive |
| ND-B17 | 1 | – | 2723 | 5175 | 1021 | 3205 | inactive |
| CG12209 | 1 | – | 1459 | 6106 | 617 | 2346 | inactive |

No new results follow: an excerpt of the list.
| target gene | reagent | reporter change call, replicate 1 | firefly reporter light, replicate 1 | firefly reporter light, replicate 2 | Renilla control light, replicate 1 | Renilla control light, replicate 2 | call |
| --- | --- | --- | --- | --- | --- | --- | --- |
| CG31248 | 1 | – | 5.51e5 | 5.18e5 | 1.65e5 | 1.34e5 | inactive |
| Asciz | 1 | – | 4662 | – | 1888 | – | inactive |
| Nrt | 1 | – | 2236 | – | 971 | – | inactive |
| clt | 1 | – | 2490 | 6507 | 755 | 2378 | inactive |
